Measurements reported in the supplement of paper PMC8728848.
Some of the results follow.

Columns and labels:
Assay in all cases: glycan array binding signal (z-score within array); higher = stronger binding
Details in all cases: glycan notation: IUPAC condensed, linker removed
[1] = biological target: Fuc(a1-2)Gal(b1-4)[Fuc(a1-3)]GlcNAc
Procedure, shortened: (§1)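 The binding signal is a Z-score computed within each array. Data were drawn from 3228 arrays in the Consortium for Functional Glycomics database, restricted to those with a known protein sequence. Scores were averaged over arrays of the same protein sequence at different concentrations or buffers, and over linkers, and negative values can be taken as non-binding.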

[2] = biological target: Fuc(a1-2)Gal(b1-4)[Fuc(a1-3)]GlcNAc(b1-2)Man(a1-3)[Fuc(a1-2)Gal(b1-4)[Fuc(a1-3)]GlcNAc(b1-2)Man(a1-6)]Man(b1-4)GlcNAc(b1-4)GlcNAc
Procedure, shortened: as §1

[3] = biological target: Fuc(a1-2)Gal(b1-4)[Fuc(a1-3)]GlcNAc(b1-2)[Fuc(a1-2)Gal(b1-4)[Fuc(a1-3)]GlcNAc(b1-4)]Man(a1-3)[Fuc(a1-2)Gal(b1-4)[Fuc(a1-3)]GlcNAc(b1-2)Man(a1-6)]Man(b1-4)GlcNAc(b1-4)GlcNAc
Procedure, shortened: as §1

[4] = biological target: Fuc(a1-2)Gal(b1-4)[Fuc(a1-3)]GlcNAc(b1-3)Gal(b1-4)[Fuc(a1-3)]GlcNAc
Procedure, shortened: as §1

[5] = biological target: Fuc(a1-2)Gal(b1-4)[Fuc(a1-3)]GlcNAc(b1-3)Gal(b1-4)[Fuc(a1-3)]GlcNAc(b1-3)Gal(b1-4)[Fuc(a1-3)]GlcNAc
Procedure, shortened: as §1

[6] = biological target: Fuc(a1-2)Gal(b1-4)[Fuc(a1-3)]GlcNAc(b1-3)GalNAc
Procedure, shortened: as §1

[7] = biological target: Fuc(a1-2)Gal6S(b1-4)Glc
Procedure, shortened: as §1

[8] = biological target: Fuc(a1-2)Gal6S(b1-4)Glc6S
Procedure, shortened: as §1

[9] = biological target: Fuc(a1-2)Gal6S(b1-4)GlcNAc
Procedure, shortened: as §1

[10] = biological target: Fuc(a1-2)[Gal(a1-3)]Gal
Procedure, shortened: as §1

[11] = biological target: Fuc(a1-2)[Gal(a1-3)]Gal(b1-3)GalNAc
Procedure, shortened: as §1

[12] = biological target: Fuc(a1-2)[Gal(a1-3)]Gal(b1-3)GlcNAc
Procedure, shortened: as §1

[13] = biological target: Fuc(a1-2)[Gal(a1-3)]Gal(b1-3)GlcNAc(b1-2)Man(a1-3)[Fuc(a1-2)[Gal(a1-3)]Gal(b1-3)GlcNAc(b1-2)Man(a1-6)]Man(b1-4)GlcNAc(b1-4)GlcNAc
Procedure, shortened: as §1

[14] = biological target: Fuc(a1-2)[Gal(a1-3)]Gal(b1-3)GlcNAc(b1-2)Man(a1-3)[Fuc(a1-2)[Gal(a1-3)]Gal(b1-3)GlcNAc(b1-2)Man(a1-6)]Man(b1-4)GlcNAc(b1-4)[Fuc(a1-6)]GlcNAc
Procedure, shortened: as §1

[15] = biological target: Fuc(a1-2)[Gal(a1-3)]Gal(b1-3)GlcNAc(b1-3)GalNAc
Procedure, shortened: as §1

[16] = biological target: Fuc(a1-2)[Gal(a1-3)]Gal(b1-4)Glc
Procedure, shortened: as §1

[17] = biological target: Fuc(a1-2)[Gal(a1-3)]Gal(b1-4)GlcNAc
Procedure, shortened: as §1

[18] = biological target: Fuc(a1-2)[Gal(a1-3)]Gal(b1-4)GlcNAc(b1-2)Man(a1-3)[Fuc(a1-2)[Gal(a1-3)]Gal(b1-4)GlcNAc(b1-2)Man(a1-6)]Man(b1-4)GlcNAc(b1-4)GlcNAc
Procedure, shortened: as §1

[19] = biological target: Fuc(a1-2)[Gal(a1-3)]Gal(b1-4)GlcNAc(b1-2)Man(a1-3)[Fuc(a1-2)[Gal(a1-3)]Gal(b1-4)GlcNAc(b1-2)Man(a1-6)]Man(b1-4)GlcNAc(b1-4)[Fuc(a1-6)]GlcNAc
Procedure, shortened: as §1

[20] = biological target: Fuc(a1-2)[Gal(a1-3)]Gal(b1-4)GlcNAc(b1-3)GalNAc
Procedure, shortened: as §1

[21] = biological target: Fuc(a1-2)[Gal(a1-3)]Gal(b1-4)[Fuc(a1-3)]Glc
Procedure, shortened: as §1

[22] = biological target: Fuc(a1-2)[Gal(a1-3)]Gal(b1-4)[Fuc(a1-3)]GlcNAc
Procedure, shortened: as §1

[23] = biological target: Fuc(a1-2)[Gal(a1-3)]Gal(b1-4)[Fuc(a1-3)]GlcNAc(b1-3)GalNAc
Procedure, shortened: as §1

[24] = biological target: Fuc(a1-2)[Gal(a1-4)]Gal(b1-4)GlcNAc
Procedure, shortened: as §1

[25] = biological target: Fuc(a1-2)[GalNAc(a1-3)]Gal
Procedure, shortened: as §1

[26] = biological target: Fuc(a1-2)[GalNAc(a1-3)]Gal(b1-3)GalNAc(a1-3)[Fuc(a1-2)]Gal(b1-4)GlcNAc
Procedure, shortened: as §1

[27] = biological target: Fuc(a1-2)[GalNAc(a1-3)]Gal(b1-3)GlcNAc
Procedure, shortened: as §1

[28] = biological target: Fuc(a1-2)[GalNAc(a1-3)]Gal(b1-3)GlcNAc(b1-2)Man(a1-3)[Fuc(a1-2)[GalNAc(a1-3)]Gal(b1-3)GlcNAc(b1-2)Man(a1-6)]Man(b1-4)GlcNAc(b1-4)GlcNAc
Procedure, shortened: as §1

[29] = biological target: Fuc(a1-2)[GalNAc(a1-3)]Gal(b1-3)GlcNAc(b1-2)Man(a1-3)[Fuc(a1-2)[GalNAc(a1-3)]Gal(b1-3)GlcNAc(b1-2)Man(a1-6)]Man(b1-4)GlcNAc(b1-4)[Fuc(a1-6)]GlcNAc
Procedure, shortened: as §1

[30] = biological target: Fuc(a1-2)[GalNAc(a1-3)]Gal(b1-3)GlcNAc(b1-3)GalNAc
Procedure, shortened: as §1

B1: CD72 ectodomain (Homo sapiens), P21854 (protein)
chain: RYLQVSQQLQQTNRVLEVTNSSLRQQLRLKITQLGQSAEDLQGSRRELAQSQEALQVEQRAHQAAEGQLQACQADRQKTKETLQSEEQQRRALEQKLSNMENRLKPFFTCGSADTCCPSGWIMHQKSCFYISLTSKNWQESQKQCETLSSKLATFSEIYPQSHSYYFLNSLLPNGGSGNSYWTGLSSNKDWKLTDDTQRTRTYAQSSKCNKVHKTWSWWTLESESCRSSLPYICEMTAFRFPD
[1]
  glycan array binding signal (z-score): 0.378
[2]
  glycan array binding signal (z-score): 1.11
[3]
  glycan array binding signal (z-score): 0.317
[4]
  glycan array binding signal (z-score): -0.73
[5]
  glycan array binding signal (z-score): 0.387
[6]
  glycan array binding signal (z-score): 5.72
[7]
  glycan array binding signal (z-score): 0.07
[8]
  glycan array binding signal (z-score): -0.873
[9]
  glycan array binding signal (z-score): -0.408
[10]
  glycan array binding signal (z-score): -0.32
[11]
  glycan array binding signal (z-score): -0.158
[12]
  glycan array binding signal (z-score): 0.445
[13]
  glycan array binding signal (z-score): -0.356
[14]
  glycan array binding signal (z-score): 2.7
[15]
  glycan array binding signal (z-score): 1.37
[16]
  glycan array binding signal (z-score): 0.3
[17]
  glycan array binding signal (z-score): 0.108
[18]
  glycan array binding signal (z-score): -0.575
[19]
  glycan array binding signal (z-score): 0.336
[20]
  glycan array binding signal (z-score): -1.34
[21]
  glycan array binding signal (z-score): -0.565
[22]
  glycan array binding signal (z-score): 0.333
[23]
  glycan array binding signal (z-score): -0.443
[24]
  glycan array binding signal (z-score): -0.271
[25]
  glycan array binding signal (z-score): -0.253
[26]
  glycan array binding signal (z-score): 1.44
[27]
  glycan array binding signal (z-score): 0.299
[28]
  glycan array binding signal (z-score): -0.961
[29]
  glycan array binding signal (z-score): 1.28
[30]
  glycan array binding signal (z-score): 0.401
